Test results as given in the supplement of paper PMC8728848.
Some of the results follow.

Columns and labels:
Assay in all cases: glycan array binding signal (z-score within array); higher = stronger binding
Details in all cases: glycan notation: IUPAC condensed, linker removed
[1] = biological target: Gal(b1-4)GlcNAc(b1-2)[Gal(b1-4)GlcNAc(b1-6)]Man(a1-6)[GlcNAc(b1-4)][Gal(b1-4)GlcNAc(b1-2)Man(a1-3)]Man(b1-4)GlcNAc(b1-4)GlcNAc
Outline: (§1)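 Columns mapping to the same glycan were averaged after glycan names were converted to IUPAC-condensed notation. The data come from 3228 arrays in the Consortium for Functional Glycomics database, limited to those with an available protein sequence. Binding is reported as a within-array Z-score averaged across arrays of one protein sequence and across linkers.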

[2] = biological target: Gal(b1-4)GlcNAc(b1-2)[Gal(b1-4)GlcNAc(b1-6)]Man(a1-6)[GlcNAc(b1-4)][Gal(b1-4)GlcNAc(b1-2)[Gal(b1-4)GlcNAc(b1-4)]Man(a1-3)]Man(b1-4)GlcNAc(b1-4)[Fuc(a1-6)]GlcNAc
Outline: as §1

[3] = biological target: Gal(b1-4)GlcNAc(b1-3)Gal(b1-3)GalNAc
Outline: as §1

[4] = biological target: Gal(b1-4)GlcNAc(b1-3)Gal(b1-3)GlcNAc
Outline: as §1

[5] = biological target: Gal(b1-4)GlcNAc(b1-3)Gal(b1-4)Glc
Outline: as §1

[6] = biological target: Gal(b1-4)GlcNAc(b1-3)Gal(b1-4)GlcNAc
Outline: as §1

[7] = biological target: Gal(b1-4)GlcNAc(b1-3)Gal(b1-4)GlcNAc(b1-2)Man(a1-3)[Gal(b1-4)GlcNAc(b1-3)Gal(b1-4)GlcNAc(b1-2)Man(a1-6)]Man(b1-4)GlcNAc(b1-4)GlcNAc
Outline: as §1

[8] = biological target: Gal(b1-4)GlcNAc(b1-3)Gal(b1-4)GlcNAc(b1-2)Man(a1-3)[Gal(b1-4)GlcNAc(b1-3)Gal(b1-4)GlcNAc(b1-2)Man(a1-6)]Man(b1-4)GlcNAc(b1-4)[Fuc(a1-6)]GlcNAc
Outline: as §1

[9] = biological target: Gal(b1-4)GlcNAc(b1-3)Gal(b1-4)GlcNAc(b1-2)[Gal(b1-4)GlcNAc(b1-3)Gal(b1-4)GlcNAc(b1-6)]Man(a1-6)[Gal(b1-4)GlcNAc(b1-3)Gal(b1-4)GlcNAc(b1-2)Man(a1-3)]Man(b1-4)GlcNAc(b1-4)GlcNAc
Outline: as §1

[10] = biological target: Gal(b1-4)GlcNAc(b1-3)Gal(b1-4)GlcNAc(b1-2)[Gal(b1-4)GlcNAc(b1-3)Gal(b1-4)GlcNAc(b1-6)]Man(a1-6)[Gal(b1-4)GlcNAc(b1-3)Gal(b1-4)GlcNAc(b1-2)Man(a1-3)]Man(b1-4)GlcNAc(b1-4)[Fuc(a1-6)]GlcNAc
Outline: as §1

[11] = biological target: Gal(b1-4)GlcNAc(b1-3)Gal(b1-4)GlcNAc(b1-3)Gal(b1-4)GlcNAc
Outline: as §1

[12] = biological target: Gal(b1-4)GlcNAc(b1-3)Gal(b1-4)GlcNAc(b1-3)Gal(b1-4)GlcNAc(b1-2)Man(a1-3)[Gal(b1-4)GlcNAc(b1-3)Gal(b1-4)GlcNAc(b1-3)Gal(b1-4)GlcNAc(b1-2)Man(a1-6)]Man(b1-4)GlcNAc(b1-4)GlcNAc
Outline: as §1

[13] = biological target: Gal(b1-4)GlcNAc(b1-3)Gal(b1-4)GlcNAc(b1-3)Gal(b1-4)GlcNAc(b1-2)Man(a1-3)[Gal(b1-4)GlcNAc(b1-3)Gal(b1-4)GlcNAc(b1-3)Gal(b1-4)GlcNAc(b1-2)Man(a1-6)]Man(b1-4)GlcNAc(b1-4)[Fuc(a1-6)]GlcNAc
Outline: as §1

[14] = biological target: Gal(b1-4)GlcNAc(b1-3)Gal(b1-4)GlcNAc(b1-3)Gal(b1-4)GlcNAc(b1-2)[Gal(b1-4)GlcNAc(b1-3)Gal(b1-4)GlcNAc(b1-3)Gal(b1-4)GlcNAc(b1-6)]Man(a1-6)[Gal(b1-4)GlcNAc(b1-3)Gal(b1-4)GlcNAc(b1-3)Gal(b1-4)GlcNAc(b1-2)Man(a1-3)]Man(b1-4)GlcNAc(b1-4)[Fuc(a1-6)]GlcNAc
Outline: as §1

[15] = biological target: Gal(b1-4)GlcNAc(b1-3)Gal(b1-4)GlcNAc(b1-3)Gal(b1-4)GlcNAc(b1-3)Gal(b1-4)GlcNAc(b1-2)Man(a1-3)[Gal(b1-4)GlcNAc(b1-3)Gal(b1-4)GlcNAc(b1-3)Gal(b1-4)GlcNAc(b1-3)Gal(b1-4)GlcNAc(b1-2)Man(a1-6)]Man(b1-4)GlcNAc(b1-4)GlcNAc
Outline: as §1

[16] = biological target: Gal(b1-4)GlcNAc(b1-3)Gal(b1-4)GlcNAc(b1-3)Gal(b1-4)GlcNAc(b1-3)Gal(b1-4)GlcNAc(b1-2)Man(a1-3)[Gal(b1-4)GlcNAc(b1-3)Gal(b1-4)GlcNAc(b1-3)Gal(b1-4)GlcNAc(b1-3)Gal(b1-4)GlcNAc(b1-2)Man(a1-6)]Man(b1-4)GlcNAc(b1-4)[Fuc(a1-6)]GlcNAc
Outline: as §1

[17] = biological target: Gal(b1-4)GlcNAc(b1-3)Gal(b1-4)GlcNAc(b1-3)Gal(b1-4)GlcNAc(b1-3)Gal(b1-4)GlcNAc(b1-2)[Gal(b1-4)GlcNAc(b1-3)Gal(b1-4)GlcNAc(b1-3)Gal(b1-4)GlcNAc(b1-3)Gal(b1-4)GlcNAc(b1-6)]Man(a1-6)[Gal(b1-4)GlcNAc(b1-3)Gal(b1-4)GlcNAc(b1-3)Gal(b1-4)GlcNAc(b1-3)Gal(b1-4)GlcNAc(b1-2)Man(a1-3)]Man(b1-4)GlcNAc(b1-4)[Fuc(a1-6)]GlcNAc
Outline: as §1

[18] = biological target: Gal(b1-4)GlcNAc(b1-3)Gal(b1-4)GlcNAc(b1-3)Gal(b1-4)GlcNAc(b1-3)Gal(b1-4)GlcNAc(b1-3)Gal(b1-4)GlcNAc(b1-2)Man(a1-3)[Gal(b1-4)GlcNAc(b1-3)Gal(b1-4)GlcNAc(b1-3)Gal(b1-4)GlcNAc(b1-3)Gal(b1-4)GlcNAc(b1-3)Gal(b1-4)GlcNAc(b1-2)Man(a1-6)]Man(b1-4)GlcNAc(b1-4)GlcNAc
Outline: as §1

[19] = biological target: Gal(b1-4)GlcNAc(b1-3)Gal(b1-4)GlcNAc(b1-3)Gal(b1-4)GlcNAc(b1-3)Gal(b1-4)GlcNAc(b1-3)Gal(b1-4)GlcNAc(b1-2)Man(a1-3)[Gal(b1-4)GlcNAc(b1-3)Gal(b1-4)GlcNAc(b1-3)Gal(b1-4)GlcNAc(b1-3)Gal(b1-4)GlcNAc(b1-3)Gal(b1-4)GlcNAc(b1-2)Man(a1-6)]Man(b1-4)GlcNAc(b1-4)[Fuc(a1-6)]GlcNAc
Outline: as §1

[20] = biological target: Gal(b1-4)GlcNAc(b1-3)Gal(b1-4)GlcNAc(b1-3)Gal(b1-4)GlcNAc(b1-3)Gal(b1-4)GlcNAc(b1-3)Gal(b1-4)GlcNAc(b1-2)[Gal(b1-4)GlcNAc(b1-3)Gal(b1-4)GlcNAc(b1-3)Gal(b1-4)GlcNAc(b1-3)Gal(b1-4)GlcNAc(b1-3)Gal(b1-4)GlcNAc(b1-6)]Man(a1-6)[Gal(b1-4)GlcNAc(b1-3)Gal(b1-4)GlcNAc(b1-3)Gal(b1-4)GlcNAc(b1-3)Gal(b1-4)GlcNAc(b1-3)Gal(b1-4)GlcNAc(b1-2)Man(a1-3)]Man(b1-4)GlcNAc(b1-4)[Fuc(a1-6)]GlcNAc
Outline: as §1

[21] = biological target: Gal(b1-4)GlcNAc(b1-3)Gal(b1-4)GlcNAc(b1-3)Gal(b1-4)GlcNAc(b1-3)Gal(b1-4)GlcNAc(b1-3)Gal(b1-4)GlcNAc(b1-3)Gal(b1-4)GlcNAc(b1-2)Man(a1-3)[Gal(b1-4)GlcNAc(b1-3)Gal(b1-4)GlcNAc(b1-3)Gal(b1-4)GlcNAc(b1-3)Gal(b1-4)GlcNAc(b1-3)Gal(b1-4)GlcNAc(b1-3)Gal(b1-4)GlcNAc(b1-2)Man(a1-6)]Man(b1-4)GlcNAc(b1-4)GlcNAc
Outline: as §1

[22] = biological target: Gal(b1-4)GlcNAc(b1-3)Gal(b1-4)GlcNAc(b1-3)GalNAc
Outline: as §1

[23] = biological target: Gal(b1-4)GlcNAc(b1-3)Gal(b1-4)GlcNAc(b1-3)[Gal(b1-4)GlcNAc(b1-3)Gal(b1-4)GlcNAc(b1-6)]GalNAc
Outline: as §1

B1: Lb MiSSP8 (Laccaria bicolor) (protein)
chain: MYFHTLFACATLMLITTAHASPTVINSLDSRKADLNGDVEARHAADWRRDSDWRRDSDWRRDSDWRRDSD
B1 was tested, and the “glycan array binding signal (z-score)” value [1] was -0.571, the “glycan array binding signal (z-score)” value [2] was 0.036 and the “glycan array binding signal (z-score)” value [3] was -1.19. The “glycan array binding signal (z-score)” value [4] was 0.292, the “glycan array binding signal (z-score)” value [5] was 2.29 and the “glycan array binding signal (z-score)” value [6] was -1.01. The “glycan array binding signal (z-score)” value [7] was 1.96, the “glycan array binding signal (z-score)” value [8] was 0.133 and the “glycan array binding signal (z-score)” value [9] was 2.86. For the same binder, the “glycan array binding signal (z-score)” value [10] was 0.637, the “glycan array binding signal (z-score)” value [11] was -0.82 and the “glycan array binding signal (z-score)” value [12] was 1.53. For the same binder, the “glycan array binding signal (z-score)” value [13] was 0.589, the “glycan array binding signal (z-score)” value [14] was 1.1 and the “glycan array binding signal (z-score)” value [15] was 0.602. The “glycan array binding signal (z-score)” value [16] was 0.996, the “glycan array binding signal (z-score)” value [17] was 1.09 and the “glycan array binding signal (z-score)” value [18] was 1.02. For the same binder, the “glycan array binding signal (z-score)” value [19] was 1.62, the “glycan array binding signal (z-score)” value [20] was 0.809 and the “glycan array binding signal (z-score)” value [21] was -0.129. For the same binder, the “glycan array binding signal (z-score)” value [22] was 0.43 and the “glycan array binding signal (z-score)” value [23] was 1.16.
